For at least one entry, the source does not settle the construct or the ends of the probe.

The chains behind the UniProt entries cited, without tags or fusion partners. Residues count along the entry.
UniProt P51531, 1379-1508: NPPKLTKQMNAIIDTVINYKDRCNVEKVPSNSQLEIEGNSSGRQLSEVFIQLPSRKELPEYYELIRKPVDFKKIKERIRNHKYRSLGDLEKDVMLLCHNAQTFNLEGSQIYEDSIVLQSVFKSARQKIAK

This series deals with hBRM-A BRD (human) (UniProt P51531). Kind of series: NMR titration. To be noted: column assigned from text; FA and NMR: 50 mM K phosphate pH 7.0, 50 mM KCl, 0.5 mM EDTA, 1 mM DTT (NMR +10% D2O), 20 C (BRG1 NMR 25 C); recombinant protein; residues 1379-1508.

Broadly, the Kd is the equilibrium constant for the complex coming apart. For CGTAGACAGCT (double strand) [DNAII], the Kd worked out at 270 µM.

For CTCAATTGGT (double strand) [DNAI], the Kd was determined as 230 µM.

These data come from article PMC5519978.
